No constants are given. Whether binding was seen depends on the method and setting. Binding seen in cells or lysates may run through a third protein. A yes stands for co-enrichment or nearness to the bait. Other partners may have been found. For some of these results: Where a sequence is shown, tags or fusion partners need not be part of it.
Assays:
Test in all cases: affinity purification with mass spectrometry; GFP-Trap or HA-antibody bead pulldown against control beads from nuclear extract of parasite lines with the bait endogenously tagged; dimethyl labelling, label swap; FDR < 10% in at least two reactions
[1] = biological target: T1, endogenously GFP-tagged BDP1 (P. falciparum (endogenous in 3D7 parasites)) (UniProt Q8IJ72)
T1 sequence: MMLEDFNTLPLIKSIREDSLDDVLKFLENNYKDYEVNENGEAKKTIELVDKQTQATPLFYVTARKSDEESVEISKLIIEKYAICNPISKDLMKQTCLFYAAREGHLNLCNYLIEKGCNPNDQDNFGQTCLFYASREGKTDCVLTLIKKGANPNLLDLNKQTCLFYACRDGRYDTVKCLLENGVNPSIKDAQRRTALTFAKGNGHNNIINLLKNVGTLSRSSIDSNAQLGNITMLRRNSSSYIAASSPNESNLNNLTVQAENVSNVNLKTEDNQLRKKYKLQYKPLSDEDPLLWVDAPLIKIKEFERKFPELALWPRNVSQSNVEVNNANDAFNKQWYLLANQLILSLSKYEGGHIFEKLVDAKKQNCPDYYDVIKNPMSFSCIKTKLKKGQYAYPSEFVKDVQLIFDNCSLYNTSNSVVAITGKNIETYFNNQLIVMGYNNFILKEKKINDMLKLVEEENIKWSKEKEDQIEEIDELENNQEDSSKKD

The chains behind the UniProt entries cited, without tags or fusion partners.
UniProt Q8I581: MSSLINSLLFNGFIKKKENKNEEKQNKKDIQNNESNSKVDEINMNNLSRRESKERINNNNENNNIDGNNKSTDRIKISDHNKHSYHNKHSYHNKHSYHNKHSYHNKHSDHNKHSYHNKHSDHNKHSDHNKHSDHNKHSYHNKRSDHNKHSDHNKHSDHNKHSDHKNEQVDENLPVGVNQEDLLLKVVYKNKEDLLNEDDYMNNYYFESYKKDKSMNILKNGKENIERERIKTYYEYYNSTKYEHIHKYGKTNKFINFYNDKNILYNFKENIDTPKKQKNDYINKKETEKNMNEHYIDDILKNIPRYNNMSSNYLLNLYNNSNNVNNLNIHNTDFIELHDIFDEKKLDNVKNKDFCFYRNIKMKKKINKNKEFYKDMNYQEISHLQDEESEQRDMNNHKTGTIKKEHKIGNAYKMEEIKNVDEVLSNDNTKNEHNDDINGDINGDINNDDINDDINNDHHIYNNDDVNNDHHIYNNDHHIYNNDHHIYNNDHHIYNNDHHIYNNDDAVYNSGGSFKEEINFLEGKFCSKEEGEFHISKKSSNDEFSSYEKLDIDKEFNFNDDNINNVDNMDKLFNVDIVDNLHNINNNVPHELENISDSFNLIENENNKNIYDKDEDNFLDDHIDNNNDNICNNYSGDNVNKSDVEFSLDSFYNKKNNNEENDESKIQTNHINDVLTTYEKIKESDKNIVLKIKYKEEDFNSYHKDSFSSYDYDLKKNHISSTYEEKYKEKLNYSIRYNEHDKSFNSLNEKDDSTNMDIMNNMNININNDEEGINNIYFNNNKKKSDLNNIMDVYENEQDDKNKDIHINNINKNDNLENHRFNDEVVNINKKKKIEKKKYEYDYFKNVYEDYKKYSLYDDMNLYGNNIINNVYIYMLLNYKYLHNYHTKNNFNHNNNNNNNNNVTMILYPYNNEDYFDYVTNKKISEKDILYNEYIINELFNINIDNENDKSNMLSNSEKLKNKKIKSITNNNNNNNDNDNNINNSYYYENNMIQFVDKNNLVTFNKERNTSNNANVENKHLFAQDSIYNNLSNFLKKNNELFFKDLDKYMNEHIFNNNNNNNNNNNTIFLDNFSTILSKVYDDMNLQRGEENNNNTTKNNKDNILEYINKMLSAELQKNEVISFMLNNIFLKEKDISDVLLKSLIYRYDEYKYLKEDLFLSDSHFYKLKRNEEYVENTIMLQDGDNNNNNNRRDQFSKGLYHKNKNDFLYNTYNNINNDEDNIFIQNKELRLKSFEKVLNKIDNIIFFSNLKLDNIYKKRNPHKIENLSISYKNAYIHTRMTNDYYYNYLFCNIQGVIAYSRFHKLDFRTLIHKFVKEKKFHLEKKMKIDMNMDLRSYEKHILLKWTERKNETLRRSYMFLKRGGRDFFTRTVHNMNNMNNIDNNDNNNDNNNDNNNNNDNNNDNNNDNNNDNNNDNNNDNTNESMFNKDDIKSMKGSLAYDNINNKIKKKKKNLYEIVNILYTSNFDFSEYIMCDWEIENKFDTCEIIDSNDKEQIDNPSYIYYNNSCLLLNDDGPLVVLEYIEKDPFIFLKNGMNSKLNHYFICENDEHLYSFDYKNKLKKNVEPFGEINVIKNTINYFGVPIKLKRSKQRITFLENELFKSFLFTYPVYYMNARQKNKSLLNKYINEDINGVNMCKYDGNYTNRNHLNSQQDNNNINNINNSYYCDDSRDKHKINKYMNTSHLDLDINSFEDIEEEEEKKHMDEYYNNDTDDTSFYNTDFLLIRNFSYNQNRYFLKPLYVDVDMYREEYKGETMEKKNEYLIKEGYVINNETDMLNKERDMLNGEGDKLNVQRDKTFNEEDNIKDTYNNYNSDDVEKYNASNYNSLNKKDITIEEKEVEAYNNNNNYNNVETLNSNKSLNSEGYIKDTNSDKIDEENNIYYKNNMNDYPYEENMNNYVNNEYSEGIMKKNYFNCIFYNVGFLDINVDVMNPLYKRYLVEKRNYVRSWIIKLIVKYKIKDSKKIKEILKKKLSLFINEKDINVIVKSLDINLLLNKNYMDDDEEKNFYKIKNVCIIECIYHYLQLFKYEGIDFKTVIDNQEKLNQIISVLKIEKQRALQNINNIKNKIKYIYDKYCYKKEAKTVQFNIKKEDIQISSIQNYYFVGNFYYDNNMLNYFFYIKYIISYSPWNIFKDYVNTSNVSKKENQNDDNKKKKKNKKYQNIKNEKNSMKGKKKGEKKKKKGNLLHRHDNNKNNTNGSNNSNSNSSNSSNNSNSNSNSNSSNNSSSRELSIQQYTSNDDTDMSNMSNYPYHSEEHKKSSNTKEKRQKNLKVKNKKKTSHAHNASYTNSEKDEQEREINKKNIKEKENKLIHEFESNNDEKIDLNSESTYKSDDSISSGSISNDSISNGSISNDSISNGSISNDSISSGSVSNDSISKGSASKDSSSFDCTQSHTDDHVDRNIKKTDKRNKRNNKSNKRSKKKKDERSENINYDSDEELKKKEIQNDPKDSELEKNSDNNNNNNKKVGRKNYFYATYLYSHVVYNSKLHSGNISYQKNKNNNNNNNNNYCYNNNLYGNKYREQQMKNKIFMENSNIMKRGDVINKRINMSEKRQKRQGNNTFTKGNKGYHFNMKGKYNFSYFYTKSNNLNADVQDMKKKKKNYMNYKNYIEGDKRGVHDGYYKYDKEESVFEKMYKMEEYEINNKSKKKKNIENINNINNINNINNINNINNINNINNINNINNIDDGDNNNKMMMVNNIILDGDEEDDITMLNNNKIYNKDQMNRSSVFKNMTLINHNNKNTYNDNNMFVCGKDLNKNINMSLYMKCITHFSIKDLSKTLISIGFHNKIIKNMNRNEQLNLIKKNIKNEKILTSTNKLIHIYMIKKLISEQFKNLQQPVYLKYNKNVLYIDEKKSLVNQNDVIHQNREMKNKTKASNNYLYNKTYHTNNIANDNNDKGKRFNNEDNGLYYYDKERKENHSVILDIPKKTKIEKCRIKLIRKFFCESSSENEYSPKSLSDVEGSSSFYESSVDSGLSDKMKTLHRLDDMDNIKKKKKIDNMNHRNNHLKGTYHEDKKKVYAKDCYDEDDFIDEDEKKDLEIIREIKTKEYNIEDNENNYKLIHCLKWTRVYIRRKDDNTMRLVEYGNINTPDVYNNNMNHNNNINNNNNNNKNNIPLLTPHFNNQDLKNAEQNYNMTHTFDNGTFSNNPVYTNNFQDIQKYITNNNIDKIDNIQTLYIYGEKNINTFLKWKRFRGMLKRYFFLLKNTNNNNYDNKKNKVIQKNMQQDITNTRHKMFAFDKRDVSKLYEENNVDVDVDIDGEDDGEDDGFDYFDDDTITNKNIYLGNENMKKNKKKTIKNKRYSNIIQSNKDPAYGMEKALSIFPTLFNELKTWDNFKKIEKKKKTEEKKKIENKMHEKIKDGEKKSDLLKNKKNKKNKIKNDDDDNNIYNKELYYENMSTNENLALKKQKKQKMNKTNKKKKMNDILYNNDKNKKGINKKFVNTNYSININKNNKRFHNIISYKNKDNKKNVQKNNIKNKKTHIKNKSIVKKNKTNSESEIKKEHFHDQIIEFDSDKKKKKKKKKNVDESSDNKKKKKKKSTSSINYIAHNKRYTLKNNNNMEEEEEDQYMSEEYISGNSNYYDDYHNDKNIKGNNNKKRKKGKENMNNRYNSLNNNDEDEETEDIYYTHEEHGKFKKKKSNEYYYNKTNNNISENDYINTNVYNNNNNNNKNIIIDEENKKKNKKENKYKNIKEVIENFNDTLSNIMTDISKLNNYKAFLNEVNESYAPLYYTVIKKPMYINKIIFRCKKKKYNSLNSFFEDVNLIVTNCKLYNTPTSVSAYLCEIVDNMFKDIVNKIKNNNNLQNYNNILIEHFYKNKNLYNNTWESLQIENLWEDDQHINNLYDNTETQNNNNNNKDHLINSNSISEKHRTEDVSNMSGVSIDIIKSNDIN

[2] = biological target: TAF1/BDP5-AID-GFP (P. falciparum (endogenous in 3D7 parasites)) (UniProt Q8I581)
[3] = biological target: T2, endogenously GFP-tagged BDP4 (P. falciparum (endogenous in 3D7 parasites)) (UniProt Q8IK82)
T2 sequence: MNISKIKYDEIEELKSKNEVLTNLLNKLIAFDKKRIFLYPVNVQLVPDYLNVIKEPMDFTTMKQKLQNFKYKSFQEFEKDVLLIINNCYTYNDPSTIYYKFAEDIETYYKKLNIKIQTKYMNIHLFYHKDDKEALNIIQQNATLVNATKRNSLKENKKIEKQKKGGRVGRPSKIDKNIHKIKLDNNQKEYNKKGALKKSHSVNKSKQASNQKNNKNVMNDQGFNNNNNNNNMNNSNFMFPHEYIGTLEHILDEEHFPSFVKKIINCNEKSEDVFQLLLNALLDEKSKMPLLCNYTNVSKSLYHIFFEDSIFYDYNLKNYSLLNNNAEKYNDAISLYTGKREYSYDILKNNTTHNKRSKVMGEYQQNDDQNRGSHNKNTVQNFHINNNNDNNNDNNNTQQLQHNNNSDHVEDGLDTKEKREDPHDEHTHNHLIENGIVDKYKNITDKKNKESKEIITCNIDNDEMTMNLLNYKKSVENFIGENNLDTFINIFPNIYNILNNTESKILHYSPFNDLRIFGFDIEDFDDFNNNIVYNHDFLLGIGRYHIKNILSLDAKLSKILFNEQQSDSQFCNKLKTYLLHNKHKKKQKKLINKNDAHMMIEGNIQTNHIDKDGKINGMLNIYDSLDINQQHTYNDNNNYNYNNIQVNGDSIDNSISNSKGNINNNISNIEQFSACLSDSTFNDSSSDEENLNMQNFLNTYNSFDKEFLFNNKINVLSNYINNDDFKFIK

[4] = biological target: T3, endogenously 3xHA-tagged BDP2 (P. falciparum (endogenous in 3D7 parasites)) (UniProt Q8I5S4)
T3 sequence: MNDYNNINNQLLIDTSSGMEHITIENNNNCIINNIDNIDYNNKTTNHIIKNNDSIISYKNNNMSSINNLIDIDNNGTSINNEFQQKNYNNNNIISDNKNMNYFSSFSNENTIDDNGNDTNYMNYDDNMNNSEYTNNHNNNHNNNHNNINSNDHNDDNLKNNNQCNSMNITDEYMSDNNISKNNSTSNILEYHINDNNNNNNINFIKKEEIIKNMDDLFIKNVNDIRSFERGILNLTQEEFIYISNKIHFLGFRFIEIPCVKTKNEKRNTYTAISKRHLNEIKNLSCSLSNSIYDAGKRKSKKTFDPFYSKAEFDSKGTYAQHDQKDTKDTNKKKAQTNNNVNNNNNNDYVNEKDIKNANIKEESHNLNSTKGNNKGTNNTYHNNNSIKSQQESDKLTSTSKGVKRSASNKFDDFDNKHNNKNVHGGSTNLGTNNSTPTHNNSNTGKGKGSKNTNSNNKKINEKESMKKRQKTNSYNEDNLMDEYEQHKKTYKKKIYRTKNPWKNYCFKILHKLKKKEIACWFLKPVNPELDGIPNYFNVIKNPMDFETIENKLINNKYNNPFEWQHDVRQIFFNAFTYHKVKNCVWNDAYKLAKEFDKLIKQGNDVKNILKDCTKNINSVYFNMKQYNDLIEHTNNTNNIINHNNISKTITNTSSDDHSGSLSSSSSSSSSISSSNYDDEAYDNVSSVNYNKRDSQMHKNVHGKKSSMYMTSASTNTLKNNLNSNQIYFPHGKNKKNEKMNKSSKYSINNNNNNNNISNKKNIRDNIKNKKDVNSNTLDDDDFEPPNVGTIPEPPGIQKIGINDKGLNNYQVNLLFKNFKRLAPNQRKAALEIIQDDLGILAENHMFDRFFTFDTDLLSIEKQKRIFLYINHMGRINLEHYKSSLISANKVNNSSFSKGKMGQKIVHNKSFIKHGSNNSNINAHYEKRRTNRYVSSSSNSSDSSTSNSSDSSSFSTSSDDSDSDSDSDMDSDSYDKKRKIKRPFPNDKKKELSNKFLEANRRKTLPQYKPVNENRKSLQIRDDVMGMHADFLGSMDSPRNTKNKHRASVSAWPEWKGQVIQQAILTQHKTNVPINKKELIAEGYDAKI

Measured: binding

B1: bromodomain protein 2 (protein, UniProt Q8I5S4 1-1088)
chain: MNDYNNINNQLLIDTSSGMEHITIENNNNCIINNIDNIDYNNKTTNHIIKNNDSIISYKNNNMSSINNLIDIDNNGTSINNEFQQKNYNNNNIISDNKNMNYFSSFSNENTIDDNGNDTNYMNYDDNMNNSEYTNNHNNNHNNNHNNINSNDHNDDNLKNNNQCNSMNITDEYMSDNNISKNNSTSNILEYHINDNNNNNNINFIKKEEIIKNMDDLFIKNVNDIRSFERGILNLTQEEFIYISNKIHFLGFRFIEIPCVKTKNEKRNTYTAISKRHLNEIKNLSCSLSNSIYDAGKRKSKKTFDPFYSKAEFDSKGTYAQHDQKDTKDTNKKKAQTNNNVNNNNNNDYVNEKDIKNANIKEESHNLNSTKGNNKGTNNTYHNNNSIKSQQESDKLTSTSKGVKRSASNKFDDFDNKHNNKNVHGGSTNLGTNNSTPTHNNSNTGKGKGSKNTNSNNKKINEKESMKKRQKTNSYNEDNLMDEYEQHKKTYKKKIYRTKNPWKNYCFKILHKLKKKEIACWFLKPVNPELDGIPNYFNVIKNPMDFETIENKLINNKYNNPFEWQHDVRQIFFNAFTYHKVKNCVWNDAYKLAKEFDKLIKQGNDVKNILKDCTKNINSVYFNMKQYNDLIEHTNNTNNIINHNNISKTITNTSSDDHSGSLSSSSSSSSSISSSNYDDEAYDNVSSVNYNKRDSQMHKNVHGKKSSMYMTSASTNTLKNNLNSNQIYFPHGKNKKNEKMNKSSKYSINNNNNNNNISNKKNIRDNIKNKKDVNSNTLDDDDFEPPNVGTIPEPPGIQKIGINDKGLNNYQVNLLFKNFKRLAPNQRKAALEIIQDDLGILAENHMFDRFFTFDTDLLSIEKQKRIFLYINHMGRINLEHYKSSLISANKVNNSSFSKGKMGQKIVHNKSFIKHGSNNSNINAHYEKRRTNRYVSSSSNSSDSSTSNSSDSSSFSTSSDDSDSDSDSDMDSDSYDKKRKIKRPFPNDKKKELSNKFLEANRRKTLPQYKPVNENRKSLQIRDDVMGMHADFLGSMDSPRNTKNKHRASVSAWPEWKGQVIQQAILTQHKTNVPINKKELIAEGYDAKI
binds: [1] | [2] | [3]

B2: protein with unknown function PF3D7_1124300 (protein, UniProt Q8IIC0 1-525)
chain: MADNNLDKNESDSSCINASDEQKSSEEKDNLGEASVVSNVNENNSSFFTKCFSKIVNFGNNTQENNIPVAHEENNNEDREYNTNESNCNRYDDEEDKKVENFDNNNINNNYLKGDGEKNIHEGGDVHTDFNNEEMINAISNYNKNELNLNRGEIYLNDNEYSFISYIILSSEFRFYPIEETKKKKRRDTLKIDDTITITDTKRIKFDNNNNNNNKIEIRKKENVTDIDADKGSNNHMNEKQVVNNSEDILKKEDEEEENLKKEGGDLLIKGNNVDKVLLDDIDIEKVRSYDKIMDAEERDKLELFDEILIHIKRNFYEKILNIETNFKNLENQIEDNHSFHFRCIIEKLKNRKYDNILYIYNDIYLYHNNLLFLSKPSSYTWMKLHELSTQITNTISDIHHKKYMQKPNRKLYHIDKEEKEKKEKKKEVLKDHEKMEYCINEEEKLAFQLLLSKLNQDTHFELFRKFKNKAVWKTLEGGEIELDDKLTRADVFREMYNWCKFQLEMKNKQSELSDSESDSSKDSY
binds: all assays above

Source: paper PMC7145593
